According to paper PMC10163288:
The other results are listed elsewhere or left out.

B1: il2ra_site2_2erj_sap_27_mot_HHH_b2_01204_af2_000000051_0001_19_34_H_._HHH_b1_08325_af2_0001_0000600012_0000001_1_0001 (protein)
chain: SSSSEDAQKAYELAREIDELLEEGDREEVEELLRELERIAEKLDSETLREAIENLEKQLEEASSS
B2: il2ra_site1_1z92_sap_17_mot_HHH_b1_01166_000000207_0001_22_38_H_._ems_3hC_185_af2_0001_0000100007_0000001_0_0001 (protein)
chain: SSSSDLEEIAEEIVKELVEEFGLSEHDEEALRKDAEAAVRLGFSPHSIELALRRAAERALSSSSS
B3: il2ra_site2_3nfp_normal_mot_HHH_b1_00005_000000120_0001_40_55_H_._HHH_b1_00556_0001_0000500030_0000001_0_af2pred_0001_af2pred (protein)
chain: SSSSDEEEREVRELIEQAEEARKEGDEKLLLRLLLRISKLVRELNNPELIELLLELIRKNQSSSS
B4: il2ra_site2_3nfp_sap_24_mot_HHH_b2_04927_af2_000000190_0001_39_52_H_._3c6ad1a4bc7d4f5cf55cee527202d42a_0001_af2_0001_0000900035_0000001_0_0001 (protein)
chain: DSLEELAREAREEGDPALLDAVTWAIVLEEQGVPPERIEKMVRYYLEALGVPPEEIEEILELLKK
B5: il2ra_site1_3nfp_normal_mot_HHH_b2_03135_af2_000000097_0001_42_55_H_._HHH_b2_03971_0001_0000400033_0000001_0 (protein)
chain: SSSSTEEFHHLAKLADEAYRALKEGNEEEVEKLLEEARKLAEELNDKIARRLLRQIEERLSSSSS
B6: il2ra_site1_3nfp_normal_mot_HHH_b2_03135_af2_000000097_0001_42_55_H_._HHH_b1_04523_0001_0000500034_0000001_0 (protein)
chain: SSSSDAAREFQELVRELIKLIKEGDEERARELLERLEQIVEERNDRIAKRLLRQLEEAVESSSSS
B7: il2ra_site2_3nfp_normal_mot_HHH_b1_00050_000000292_0001_22_38_H_._HHH_b2_04788_0001_0000100005_0000001_0 (protein)
chain: SSSSDLEEEAERLLLEAYRLLLEGNPERARELLEEAEELAREGGDEVLLRQIEWALEALRNSSSS
B8: il2ra_site1_2b5i_sap_13_mot_HHH_b2_06656_af2_000000038_0001_1_15_H_._HHH_b2_05528_0001_0000200016_0000001_0_0001_af2pred_dldesign_0_af2pred (protein)
chain: SSSSSSEAERLFLEANELHQAGKEEEAKKKLEEALKLAKAAKQNSLARAIESALSNFLESSSSSS
B9: il2ra_site2_2erj_sap_15_mot_HHH_b1_04373_af2_000000118_0001_18_33_H_._HHH_b2_01250_0001_0001100009_0000001_1_0001 (protein)
chain: SSSDLEEVTKEYVERAEELGNPLLARFLERLLEDAEKLGLSEEELRRILEASFRAVEEADKSSSS
B10: il2ra_site2_3nfp_sap_27_mot_HHH_b2_00444_000000178_0001_41_57_H_._HHH_b2_01308_af2_0001_0000100001_0000001_0_0001 (protein)
chain: SSSSDEEEEEVEELLKRIKELIENGNPEEARRLLRRVAQLAFKLNNAELFFRVAELLYELASSSS
B11: il2ra_site2_2erj_sap_28_mot_3b06bd03f1c6bceadc68eab912867b79_0001_000000296_0001_36_50_H_._HHH_b2_02223_0001_0000100001_0000001_0_0001 (protein)
chain: SSSSDVEELLKEIEELLRRGDEEEAEKLLFEAAELAFEKNDFELFNEVAELMREIDQLAVSSSSS
B12: il2ra_site2_2erj_sap_27_mot_HHH_b2_06206_af2_000000254_0001_22_39_H_._HHH_b1_04273_0001_0000200004_0000001_0_0001_af2pred_0001_af2pred (protein)
chain: SSSSSSDEEEEVRELLEEAKRIKDQREAYKVLEEAARLAEELDDPELFEEVTRVARKLSSSSSSS
B13: il2ra_site2_2erj_sap_25_mot_HHH_eva_0050_af2_000000198_0001_43_62_H_._HHH_b1_06648_af2_0001_0000100003_0000001_0_0001 (protein)
chain: SSSSSEKLHRLYELANILMRLVFEGDEEEFEEVLREAQEIAEELNSDNAQEFLEALKRQLSSSSS
B14: il2ra_site1_1z92_sap_30_mot_HHH_b1_01467_000000208_0001_22_39_H_._HHH_b2_06894_0001_0000200004_0000001_0_0001_af2pred_0001_af2pred_1 (protein)
chain: SSSSSEEERFARLAVKIAVEAAGLSEEQEKILQEVAEELLEEGVDLREIARILEEVALELASSSS
B15: il2ra_site2_3nfp_sap_27_mot_HHH_b1_05437_000000005_0001_40_57_H_._HHH_b2_08365_0001_0000100002_0000001_0_0001 (protein)
chain: SSSSSDEEVRRRVEELLEEAERVDEEERKELLAEAVRLAYELGDPELFFLIAEVAYRLASSSSSS
B16: il2ra_site2_3nfp_sap_12_mot_HHH_b1_00062_000000286_0001_1_17_H_._84ae4b0559e896e2d49ce04ad7058360_0001_0001_0000400013_0000001_0_0001 (protein)
chain: SSSSSKREEYLEVAVELLEEALEEGDEEIARKLLEVVEAAAESANDDEIERRLEEIRELLSSSSS
B17: il2ra_site1_1z92_normal_mot_934a834d9b8b770824478def2ff2f329_0001_af2_000000088_0001_15_30_H_._HHH_b1_06795_af2_0001_0000300026_0000001_0_af2pred_0001_af2pred (protein)
chain: SSSSSEEEEELKRFIEELVREFGLSESDKNQLELMAERALEQGLDDEAIKRDLKRLAEHLSSSSS
B18: il2ra_site2_3nfp_normal_mot_HHH_b1_04781_af2_000000057_0001_1_18_H_._HHH_b1_02713_0001_0000300026_0000001_0 (protein)
chain: SSSSDEEEFAEESIRLAEESAHALRDEELLERLKELLEQLEKEGDPRYALEAYALLREAYGSSSS
B19: il2ra_site1_3nfp_sap_19_mot_HHH_b1_05070_af2_000000282_0001_43_57_H_._HHH_b1_03343_0001_0000500027_0000001_1_0001_af2pred_0001_af2pred_1_swapped (protein)
chain: THLWKRAIEHIRKIDEELAELLEQVYELLKEKGDPELKRLLEEALRLLAKGNPEEAKEVLREALK
B20: il2ra_site2_2erj_normal_mot_HHH_b2_02252_af2_000000112_0001_23_39_H_._HHH_b2_01784_0001_0000800041_0000001_0 (protein)
chain: SSSSSDIEEEVEELIEEAKRIEDEEEALEVLRRAFELAFHLGNQELASEIIELAAELAKGSSSSS
B21: il2ra_site2_3nfp_sap_18_mot_HHH_b1_07052_000000239_0001_40_58_H_._HHH_b1_02131_0001_0000100001_0000001_0_0001_af2pred_0001_1_af2pred_swapped (protein)
chain: SSSSSTREEVEELLEEVERLIKEGDEEEAEEALREASKLAIEANDEELLLAVLRLLEELLSSSSS
B22: il2ra_site2_3nfp_normal_mot_HHH_b2_05281_000000198_0001_39_56_H_._HHH_b1_05110_0001_0000300018_0000001_0 (protein)
chain: SSSSDKEEERVEKLLEELKRLIEEGDDEEAQRLIAEAVHLIFELRDSELFYRLAELAYKLWSSSS
B23: il2ra_site1_2b5i_sap_13_mot_HHH_b2_04274_000000042_0001_1_19_H_._HHH_b1_01105_af2_0001_0000800037_0000001_0_0001_af2pred_dldesign_0_af2pred (protein)
chain: SSSSSPLEEKIAKLIEEARRLHAAGKRREALKLLEEAYKLASANDDEERQEEIEKLARELSSSSS
B24: il2ra_site1_2b5i_sap_9_mot_HHH_b1_00095_000000042_0001_1_14_H_._HHH_b1_08235_0001_0000300017_0000001_0_0001_af2pred_dldesign_0_af2pred (protein)
chain: SSSSSMSAKEYIDAVLEEAAKLEDPLERRRLLLLALRYAKKKNEPELEKEIEARLKELESSSSSS
B25: il2ra_site1_3nfp_normal_mot_40e86e4e32a25ee6cbb7392bdf050625_0001_1_000000004_0001_1_15_H_._98c316dcd33a4a4659f1bb01e8c35f85_0001_0001_0000300030_0000001_0_af2p … (protein)
chain: SELLERLIREAYERGNVEEYARHLLETLEKLLGDPEEAKEELERLLEEALGDPELSKELIERVEK
B26: il2ra_site1_1z92_normal_mot_b1fbee8209167eaadba3689d49187f1a_0001_1_af2_000000018_0001_16_31_H_._ca9eff2b9947dfa32b90907aa01746fa_0001_af2_0001_0000200014_00000 … (protein)
chain: DESELRDLRRAEELGIPPEQAVRAVIRAIARIDRVPPEEAAEILLQILEKLGDPELAEIAEELTP
B27: il2ra_site2_3nfp_sap_20_mot_ems_3hM_1278_af2_000000151_0001_43_60_H_._HHH_b1_03616_0001_0000200017_0000001_0_0001 (protein)
chain: SSSSSSDEEEVEELLEEAKKIEDERERLEVFAEAVQIAFESRNSELFFRIAEVAYELLSSSSSSS
B28: il2ra_site1_3nfp_sap_16_mot_HHH_b1_03236_000000173_0001_17_33_H_._HHH_b1_01532_0001_0000300008_0000001_0_0001_af2pred_0001_af2pred (protein)
chain: SSSSDVHEEARRLSRRIKELIHEGDHEEARELLEELEELARELGDPIAKILVERLERRIDSSSSS
B29: il2ra_site2_2erj_normal_mot_HHH_b2_00789_000000198_0001_40_54_H_._HHH_b1_02336_0001_0000200015_0000001_0 (protein)
chain: SSSSTESAEEALELAEEEAEELLEEGDEERARSLLRLALRYLKLSGDEEILERLEEFLRRISSSS
B30: il2ra_site2_3nfp_normal_mot_HHH_b1_03376_000000004_0001_41_55_H_._HHH_b1_01973_0001_0000500054_0000001_0 (protein)
chain: SSSSDEEVRELLEEARRLLEEGNPEEARKLVARAAHLAFQAGDSRLFFEVAELLFEIYQLGSSSS
B31: il2ra_site1_3nfp_normal_mot_HHH_b1_07560_af2_000000209_0001_40_57_H_._HHH_b1_08318_0001_0000100001_0000001_0_af2pred_0001_af2pred_1_swapped (protein)
chain: SSSSSDIAKEATERAKEHAQEAYENGDPEAAKKSLEKLERDLKAANNPELLREVEELLEELSSSS
B32: il2ra_site1_3nfp_normal_mot_HHH_b1_03481_000000088_0001_17_33_H_._8e6453a357ce3577210587ee391b8721_0001_0001_0000300022_0000001_0 (protein)
chain: GPKIVERLAEQLGVPPEVIELIKRVLEKLEKHPENRELHELLNEIAEALARGDIELVEELVEEAH
B33: il2ra_site2_2erj_sap_32_mot_104c758fc23488854646035ccb2100c6_0001_000000266_0001_15_30_H_._HHH_b2_03308_0001_0000700027_0000001_0_0001_af2pred_0001_1_af2pred_sw … (protein)
chain: SSSSSDEEEAREVVERLVEEFGLSEADKRLLELFAEFALEAGLSEEEIEKLLERIARLAGSSSSS
B34: il2ra_site2_3nfp_normal_mot_HHH_b1_05437_000000005_0001_40_57_H_._HHH_b2_01829_0001_0000100016_0000001_0 (protein)
chain: SSSSSDEEEEEVKELLEEAKRIEDEEEARRLLAEASQIAYENRDFELFFLVAEVLFKLEQSSSSS
B35: il2ra_site1_2b5i_normal_mot_HHH_b2_07442_af2_000000069_0001_1_16_H_._HHH_b1_01339_af2_0001_0000200021_0000001_0_af2pred_0001_af2pred (protein)
chain: SSSSDEEFERVLELYREASELFRQGNKEEAQELLEEALRLAEEAGDPNAKRDVRFMLELLNSSSS
B36: il2ra_site2_3nfp_sap_23_mot_HHH_b1_04032_000000208_0001_43_56_H_._HHH_b2_04216_0001_0000100001_0000001_0_0001 (protein)
chain: SSSSDKAEEYLRAAIAAAERAIEQGDPEVARSILEIAKLAAESRNDEELLERIQELLEEISSSSS
B37: il2ra_site1_3nfp_sap_14_mot_119b7766384adbe86006a62bce89dba1_0001_af2_000000052_0001_18_32_H_._HHH_b2_03369_0001_0000100001_0000001_0_0001_af2pred_0001_1_af2pre … (protein)
chain: SSDEYFERQVKRVQELAEEKNDEEVRELAEEALELFERAREEKDSEKAHEAIKIVARLQLLVSSS

These binders were tested against il2ra, P01589 (assay: yeast display titration).

Apparent Kd, inactive:
B1 no binding seen
B2 no binding seen
B3 no binding seen
B4 no binding seen
B5 no binding seen
B6 no binding seen
B7 no binding seen
B8 no binding seen
B9 no binding seen
B10 no binding seen
B11 > 523 nM
B12 no binding seen
B13 no binding seen
B14 no binding seen
B15 no binding seen
B16 no binding seen
B17 no binding seen
B18 no binding seen
B19 > 341 nM
B20 no binding seen
B21 no binding seen
B22 no binding seen
B23 no binding seen
B24 no binding seen
B25 no binding seen
B26 no binding seen
B27 no binding seen
B28 no binding seen
B29 no binding seen
B30 no binding seen
B31 no binding seen
B32 no binding seen
B33 no binding seen
B34 no binding seen
B35 no binding seen
B36 no binding seen
B37 no binding seen

A stretch taken from the entries so far:
Apparent Kd, inactive:
B6 no binding seen
B7 no binding seen
